Earlier results as cited in US9771358B2, “Dihydropyrimidine compounds and their application in pharmaceuticals” (SUNSHINE LAKE PHARMA CO., LTD., priority 2014, dated 2017).
At least one structure is not confirmed: it was looked up by name or label, or the drawing left a doubt.

Test system: HBV
Conditions: Science, 2003, 299, 893-896; cited from earlier work

## Nc1ccn([C@@H]2CS[C@H](CO)O2)c(=O)n1 [lamivudine]
  IC50: 300 nM
